In the supplement of paper PMC12764529:
± gives the half width of the 95% confidence interval. For many entries, trypsin and chymotrypsin gave values far apart.

Legend:
[1] = folding stability dG unfold from trypsin proteolysis; higher = more stable
Procedure: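 Folding stability of de novo designed mini-proteins (<80 aa, no Cys; designed by TrROS, TrMRF, ProteinMPNN and the joint model) was measured by cDNA display proteolysis with trypsin and chymotrypsin. Each protease was used at 11 concentrations in a threefold dilution series plus a no-protease condition. K50 was inferred by Bayesian fitting of sequencing counts, and dG unfold was derived against a sequence-predicted unfolded-state K50 (Tsuboyama et al. method). Sequences shown include variable-length N-terminal GS-type padding (SAGGSAGG...) inside a display construct carrying a PA tag. Rows were kept only if the AF2 dimer inter-PAE was >15, to exclude likely homo-oligomers.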

[2] = folding stability dG unfold (combined trypsin and chymotrypsin); higher = more stable
Method in brief: (§1)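 Unfolding free energy was derived, per protease or combined, against a sequence-predicted unfolded-state K50 and a shared folded-state K50, starting from K50 inferred by Bayesian fitting of sequencing counts. Digestion with trypsin and chymotrypsin was carried out on designed mini-proteins under 80 residues without cysteine in a PA-tagged cDNA display construct. Only designs with AlphaFold2 dimer inter-PAE above 15 were kept.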

[3] = folding stability dG unfold from chymotrypsin proteolysis; higher = more stable
Method in brief: as §1

## SAGGSAGGSAGGKKKPPPPKRVRLRLTLEFRLPDGLVVRLTAEFDLETNEITVTAEVRPLSAGGSAGGSAGG [r7_213_TrROS_Hall]
[1]
  folding stability dG unfold: 1.63 ± 0.18 kcal/mol
[2]
  folding stability dG unfold: 3.72 ± 0.36 kcal/mol
[3]
  folding stability dG unfold: 3.94 ± 0.2 kcal/mol

## SAGGSAGGSAGGGMPSYVTKTTTTTVKITNTTTGGNSTTTTTSTVTVTTTTLLPPGLLASAGGSAGGSAGGS [r10_300_JUSTAS]
[1]
  folding stability dG unfold: -0.147 ± 0.052 kcal/mol
[2]
  folding stability dG unfold: 0.835 ± 0.074 kcal/mol
[3]
  folding stability dG unfold: 1.2 ± 0.028 kcal/mol

## SAGGSAGGSAIPAGARVRVRVSDSLTRNPDGSLTVRRTVEIEVVSPDGSRARLRFTFTGEASSAGGSAGGSA [r18_76_TrMRF]
[1]
  folding stability dG unfold: 1.56 ± 0.027 kcal/mol
[2]
  folding stability dG unfold: 4.23 ± 0.06 kcal/mol
[3]
  folding stability dG unfold: 4.623 ± 0.039 kcal/mol

## SAGGSAGGSAGGRRLRIRFLDPNGRVLAERELDLEVVVPPPPPRLWFRDPRTGRWYELSGSAGGSAGGSAGG [r17_348_TrMRF]
[1]
  folding stability dG unfold: 0.701 ± 0.095 kcal/mol
[2]
  folding stability dG unfold: 2.4 ± 0.13 kcal/mol
[3]
  folding stability dG unfold: 3.41 ± 0.034 kcal/mol

## SAGGSAGGSGMTTTLTTEPRPDSTVVTTTTTTPTSVTTTTTVYDPDGNVVSTTTTTTPLPATSSAGGSAGGS [r12_710_JUSTAS]
[1]
  folding stability dG unfold: 1.73 ± 0.059 kcal/mol
[2]
  folding stability dG unfold: 1.11 ± 0.028 kcal/mol
[3]
  folding stability dG unfold: 0.257 ± 0.018 kcal/mol

## SAGGSAGGKPKTVTLEIEVNGKTYTIEFNEDTKEITITDKETGKKYTIPVDPDQSLEDILKALESAGGSAGG [r6_165_TrROS_Hall]
[1]
  folding stability dG unfold: 2.3 ± 0.1 kcal/mol
[2]
  folding stability dG unfold: 4.14 ± 0.2 kcal/mol
[3]
  folding stability dG unfold: 4.37 ± 0.1 kcal/mol

## SAGMTIEIENEETGETVTIEVNPEDKNKVYITYPNGEKKEMTLDEIAEKLGLSKEEIAKKIKIKKIKVVSAG [r5_156_TrROS_Hall]
[1]
  folding stability dG unfold: 1.08 ± 0.096 kcal/mol
[2]
  folding stability dG unfold: 3.28 ± 0.16 kcal/mol
[3]
  folding stability dG unfold: 3.74 ± 0.12 kcal/mol

## SAGGMLLKLPLSSVEIPPDASEEEIEEAKRKLAKPKVVKVTEEVLIEENGIVKKVKVTKYVSLSVEESAGGS [r16_387_JUSTAS]
[1]
  folding stability dG unfold: 0.845 ± 0.082 kcal/mol
[2]
  folding stability dG unfold: 0.87 ± 0.12 kcal/mol
[3]
  folding stability dG unfold: 0.56 ± 0.29 kcal/mol

## SAMLRVTVTYERSPTSPDYLVTVRVELPDGTLVAEIPILVPASDPDLTPERVREIARPIVERLAAEGLLSAG [r14_120_TrMRF]
[1]
  folding stability dG unfold: 1.01 ± 0.041 kcal/mol
[2]
  folding stability dG unfold: 3.46 ± 0.056 kcal/mol
[3]
  folding stability dG unfold: 3.833 ± 0.021 kcal/mol

## SAGGSAGGSAGPPVPVKAEITYTKEGNKYTVTITTSSPDGSTTTTTTEMTPEEIEKIKKNSAGGSAGGSAGG [r17_337_JUSTAS]
[1]
  folding stability dG unfold: -0.418 ± 0.17 kcal/mol
[2]
  folding stability dG unfold: 1.41 ± 0.22 kcal/mol
[3]
  folding stability dG unfold: 1.77 ± 0.06 kcal/mol

## SAMTKIEVEVYKPEPGRYVVTVNIRPEGTEEEIPFTVEAPPEAAEEILEALKEAFPDLEIDRIEPRYAPSAG [r14_969_TrMRF]
[1]
  folding stability dG unfold: -1.08 ± 0.36 kcal/mol
[2]
  folding stability dG unfold: 0.547 ± 0.11 kcal/mol
[3]
  folding stability dG unfold: 1.09 ± 0.066 kcal/mol

## MEELVEKAKAEGYEYEVRPVEVGSLEEAKKLAEELEERNNAKVVLVFDPATGLPVELVIIKPGKKSKKIPGS [r1_179_JUSTAS]
[1]
  folding stability dG unfold: -0.58 ± 0.22 kcal/mol
[2]
  folding stability dG unfold: 2 ± 0.09 kcal/mol
[3]
  folding stability dG unfold: 2.56 ± 0.056 kcal/mol

## SAELEELLKKAEELAKKNNVEVEVEVKLELEPVKVTEYKLNKDGKPVEKKEEEELELRLEIKVKIRPKKSAG [r14_728_TrROS_Hall]
[1]
  folding stability dG unfold: 1.26 ± 0.2 kcal/mol
[2]
  folding stability dG unfold: 2.58 ± 0.35 kcal/mol
[3]
  folding stability dG unfold: 3.22 ± 0.2 kcal/mol

## SAGGSAGGSAGGMSPGSSSTTVTTTTSPNGTVVTTTTTTTLDPNSNTTSSTTTTTTTTTSAGGSAGGSAGGS [r10_1164_JUSTAS]
[1]
  folding stability dG unfold: 3.15 ± 0.25 kcal/mol
[2]
  folding stability dG unfold: 2.42 ± 0.25 kcal/mol
[3]
  folding stability dG unfold: 1.74 ± 0.18 kcal/mol

## SHYIFMRVEVEPPNGEKREREVPVDFPPGETMSEFLDDLNIPAEGIDKVKIEMYMWDNGKPEVMEMTITVSA [r9_755_TrROS]
[1]
  folding stability dG unfold: 2.1 ± 0.12 kcal/mol
[2]
  folding stability dG unfold: 3.55 ± 0.19 kcal/mol
[3]
  folding stability dG unfold: 4.35 ± 0.071 kcal/mol

## SAGGSAPEIPTDALVRVRDPNSDKWYEATVLEARKLPGGELVYLIRLTKDGNEELVPTDLATVELKSAGGSA [r15_62_JUSTAS]
[1]
  folding stability dG unfold: 1.05 ± 0.08 kcal/mol
[2]
  folding stability dG unfold: 1.29 ± 0.098 kcal/mol
[3]
  folding stability dG unfold: 1.53 ± 0.12 kcal/mol

## SAGGGGMTSSSTLTDPVTGASVSVTTTLLPDGTPVVTLTLSDGTVVTFTFPPGNPPTLEEIAAFIAARSAGG [r13_492_JUSTAS]
[1]
  folding stability dG unfold: 2.97 ± 0.12 kcal/mol
[2]
  folding stability dG unfold: 5.15 ± 0.17 kcal/mol
[3]
  folding stability dG unfold: 5.37 ± 0.13 kcal/mol

## SAGGSVSVSYDPESGVLTITIEAENPEEVIEFIKNFVPPEYTVGPITVVKLPDGTYVAFVEIYSRKDKSAGG [r13_338_TrMRF]
[1]
  folding stability dG unfold: 1.48 ± 0.07 kcal/mol
[2]
  folding stability dG unfold: 4.42 ± 0.19 kcal/mol
[3]
  folding stability dG unfold: 4.72 ± 0.16 kcal/mol

## SAGGSAGGSAGWFLIIKFDIGLEPEYDENGKPKGMKLEVRVEIEPIPPPPDPGDPEYKENSAGGSAGGSAGG [r11_131_TrROS]
[1]
  folding stability dG unfold: 2.43 ± 0.14 kcal/mol
[2]
  folding stability dG unfold: 4.36 ± 0.19 kcal/mol
[3]
  folding stability dG unfold: 4.8 ± 0.26 kcal/mol

## SAMMVYKVRIVVKFKEGEKEIELEIEAETLEELLEEIRKKLGLEEVEIVKIEVEPVPSEEELKKLEEKKSAG [r14_852_TrROS_Hall]
[1]
  folding stability dG unfold: 1.88 ± 0.036 kcal/mol
[2]
  folding stability dG unfold: 4.36 ± 0.15 kcal/mol
[3]
  folding stability dG unfold: 4.74 ± 0.12 kcal/mol

## SAGMLYVVVTNAGDKPFVFVVPREEYTPEGIRERVAEALGLPVEDVEILSITPFEDESPIEEVKKKALGSAG [r5_900_JUSTAS]
[1]
  folding stability dG unfold: 0.763 ± 0.023 kcal/mol
[2]
  folding stability dG unfold: 3.39 ± 0.065 kcal/mol
[3]
  folding stability dG unfold: 3.87 ± 0.048 kcal/mol

## SAGGSAGGSAGGAIPSDTEVELELTLVDPRTGKPRRLRVRARVEVRPDGSLVVELEVEPESAGGSAGGSAGG [r7_18_TrMRF]
[1]
  folding stability dG unfold: 0.641 ± 0.13 kcal/mol
[2]
  folding stability dG unfold: 3.04 ± 0.096 kcal/mol
[3]
  folding stability dG unfold: 3.53 ± 0.058 kcal/mol

## SAGGMTAEELKKAIEENPGETYKVTIYRREKGPDGKVKKEEITVTKEELDALLASLPPGAVVTVEKVSAGGS [r16_116_TrROS_Hall]
[1]
  folding stability dG unfold: 1.54 ± 0.041 kcal/mol
[2]
  folding stability dG unfold: 3.67 ± 0.082 kcal/mol
[3]
  folding stability dG unfold: 4.19 ± 0.073 kcal/mol

## SAGGSAGGSAGMKVAVLTIPENGKPVLVVELPDGGALAFDPDTDAVFLLDDDKIYYLGPASAGGSAGGSAGG [r17_476_TrMRF]
[1]
  folding stability dG unfold: 0.0117 ± 0.033 kcal/mol
[2]
  folding stability dG unfold: 1.13 ± 0.075 kcal/mol
[3]
  folding stability dG unfold: 1.52 ± 0.059 kcal/mol

## SAGGSAGGSAGKVVLYLPGDGTAWVLKVGDGEAVLEAEPEKVEELLEKIPGTEAVPVPGLSAGGSAGGSAGG [r11_57_TrMRF]
[1]
  folding stability dG unfold: 0.652 ± 0.026 kcal/mol
[2]
  folding stability dG unfold: 0.425 ± 0.12 kcal/mol
[3]
  folding stability dG unfold: -0.0929 ± 0.23 kcal/mol

## SAGGKAEEIAKKLAEELRKKYNIEKVEITVEEKDGKLTITITVKFKGKPNKTIKITIEFKPKKKKKKSAGGS [r16_397_TrROS_Hall]
[1]
  folding stability dG unfold: 1.39 ± 0.069 kcal/mol
[2]
  folding stability dG unfold: 4.51 ± 0.3 kcal/mol
[3]
  folding stability dG unfold: 5.01 ± 0.12 kcal/mol
